Construct, isoform or probe ends are uncertain for at least one entry. The comparison behind a weaker result is the experiment's own reference, which may not be listed here.
System: beta-thrombin
Test: binding assay
Conditions: 5' thiol-(CH2)6, 3' (CH2)7-TAMRA, assembled on Au/Ag nanowires; partial signal relative to alpha-thrombin; nanowire fluorescence beacon; purified native …; label: TAMRA 3'; single-stranded DNA

**Q.** Does TGGTTGGTGTGGTTGG [THR Apt3] bind?
**A.** Result: binds more weakly
